PubChem BioAssay AID1259303 | Sanger Institute | 2017

Assay: 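Follow-up kinase siRNA test for drug synergy in colorectal cancer cells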 (follow-up of hits)
Cells: human COLO320HSR colorectal cancer cells
Reagents: single siRNA against human genes
Conditions: anchor drug BYL719 (1 µM), cetuximab (5 µg/ml) or trametinib (10 nM), or DMSO vehicle alone
Measurement: 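Synergy of each knock-down with BYL719 (1 µM), cetuximab (5 µg/ml) or trametinib (10 nM) versus drug alone, plus mean viability normalised to non-targeting pool 2 siRNA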
Reading the numbers: synergy score with BYL719: higher = stronger combined killing with BYL719; synergy score with cetuximab: higher = stronger combined killing with cetuximab; synergy score with trametinib: higher = stronger combined killing with trametinib
Rule for the call: 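Called active if the synergy score tops 0.10 with BYL719, cetuximab or trametinib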
Meaning of the calls: active = synergy with at least one drug; inactive = no synergy found
The deposit covers 160 reagents; below is a random part of them. In the full data, 11 (6.9%) are marked active. 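Viability capped at 1; how the synergy score is calculated is not stated; four separate siRNAs target each gene.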 A number with no mark means an inactive call. The numbers tell different reagents against one gene apart. Further read-outs or replicates are left out here. Not stated in the record: the amount of reagent, the time to read-out.

gene,reagent,synergy score with BYL719,synergy score with cetuximab,synergy score with trametinib
NLK (nemo like kinase),1,-0.095,0,0
NLK (nemo like kinase),2,-0.00593,0.0097,-0.0561
NLK (nemo like kinase),3,-0.303,0,0
NLK (nemo like kinase),4,-0.046,0,0
IRAK3 (interleukin 1 receptor associated kinase 3),1,-0.201,-0.0269,-0.201
IRAK3 (interleukin 1 receptor associated kinase 3),2,-0.102,-0.0117,-0.0405
IRAK3 (interleukin 1 receptor associated kinase 3),3,-0.196,-0.0256,-0.201
IRAK3 (interleukin 1 receptor associated kinase 3),4,-0.118,-0.0492,-0.0214
PLK1 (polo like kinase 1),1,-0.0569,-0.0596,-0.0248
PLK1 (polo like kinase 1),2,-0.135,-0.0864,-0.143
PLK1 (polo like kinase 1),3,0.0168,-0.0511,-0.0571
PLK1 (polo like kinase 1),4,-0.093,-0.0827,-0.123
"BRAF (B-Raf proto-oncogene, serine/threonine kinase)",1,-0.0412 (active),0.14,-0.0352
"BRAF (B-Raf proto-oncogene, serine/threonine kinase)",2,-0.0484,0.00985,-0.019
"BRAF (B-Raf proto-oncogene, serine/threonine kinase)",3,-0.0159 (active),0.236,0
"BRAF (B-Raf proto-oncogene, serine/threonine kinase)",4,-0.137,0,0
PINK1 (PTEN induced kinase 1),1,-0.371,-0.174,-0.28
PINK1 (PTEN induced kinase 1),2,-0.128,0.0805,-0.0506
PINK1 (PTEN induced kinase 1),3,-0.107,-0.000579,-0.237
PINK1 (PTEN induced kinase 1),4,-0.0287,-0.124,-0.0901
COASY (Coenzyme A synthase),1,-0.183,0,0
COASY (Coenzyme A synthase),2,0.0701,-0.0906,0.0297
COASY (Coenzyme A synthase),3,-0.109,0.000339,-0.176
COASY (Coenzyme A synthase),4,0.0723,0.0112,-0.0638
"PIM1 (Pim-1 proto-oncogene, serine/threonine kinase)",1,0.0634,-0.0603,-0.0812
"PIM1 (Pim-1 proto-oncogene, serine/threonine kinase)",2,0.0335,-0.0119,-0.0119
"PIM1 (Pim-1 proto-oncogene, serine/threonine kinase)",3,-0.0789,-0.218,-0.314
"PIM1 (Pim-1 proto-oncogene, serine/threonine kinase)",4,0.0172,-0.013,-0.0994
HUNK (hormonally up-regulated Neu-associated kinase),1,-0.186,-0.17,-0.22
HUNK (hormonally up-regulated Neu-associated kinase),2,-0.0858,-0.0943,-0.208
HUNK (hormonally up-regulated Neu-associated kinase),3,0.0691,0,0
HUNK (hormonally up-regulated Neu-associated kinase),4,-0.0852,0.0473,-0.115
CSNK2A2 (casein kinase 2 alpha 2),1,-0.103,-0.0349,-0.0349
CSNK2A2 (casein kinase 2 alpha 2),2,-0.204,-0.0782,-0.167
CSNK2A2 (casein kinase 2 alpha 2),3,-0.226,-0.125,-0.126
CSNK2A2 (casein kinase 2 alpha 2),4,-0.199,-0.0184,-0.137
RPS6KA4 (ribosomal protein S6 kinase A4),1,-0.143,-0.165,-0.169
RPS6KA4 (ribosomal protein S6 kinase A4),2,-0.0103,-0.0846,-0.11
RPS6KA4 (ribosomal protein S6 kinase A4),3,-0.0733,-0.0416,-0.247
RPS6KA4 (ribosomal protein S6 kinase A4),4,0.0144,-0.024,-0.102

3 entries already listed, arranged by “synergy score with BYL719”, high to low.
gene,reagent,synergy score with BYL719,synergy score with cetuximab,synergy score with trametinib
COASY (Coenzyme A synthase),4,0.0723,0.0112,-0.0638
COASY (Coenzyme A synthase),2,0.0701,-0.0906,0.0297
COASY (Coenzyme A synthase),3,-0.109,0.000339,-0.176
